From article doi:10.1101/2025.01.09.632080 come the findings set out here.

Protein sequences, listed by entry. Tags and fused reporters are not part of them. Lines headed by an entry give the natural chain unless they say otherwise; changes in a name come on top.
UniProt Q567U6: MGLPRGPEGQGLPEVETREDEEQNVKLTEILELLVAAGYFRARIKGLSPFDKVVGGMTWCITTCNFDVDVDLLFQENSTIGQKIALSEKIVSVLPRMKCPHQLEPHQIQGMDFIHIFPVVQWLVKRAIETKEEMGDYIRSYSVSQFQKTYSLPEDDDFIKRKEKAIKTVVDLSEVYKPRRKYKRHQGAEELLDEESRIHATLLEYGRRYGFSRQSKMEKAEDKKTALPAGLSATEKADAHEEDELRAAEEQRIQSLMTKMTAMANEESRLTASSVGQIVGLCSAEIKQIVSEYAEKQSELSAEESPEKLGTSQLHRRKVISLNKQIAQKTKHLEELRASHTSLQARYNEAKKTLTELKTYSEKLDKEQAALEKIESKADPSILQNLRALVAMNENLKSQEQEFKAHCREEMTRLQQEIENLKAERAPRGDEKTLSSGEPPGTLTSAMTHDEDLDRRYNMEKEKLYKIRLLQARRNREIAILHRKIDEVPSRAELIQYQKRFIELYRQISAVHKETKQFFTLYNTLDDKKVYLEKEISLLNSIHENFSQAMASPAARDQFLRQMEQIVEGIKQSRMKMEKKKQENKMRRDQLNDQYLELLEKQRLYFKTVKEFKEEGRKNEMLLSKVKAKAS
UniProt P19474: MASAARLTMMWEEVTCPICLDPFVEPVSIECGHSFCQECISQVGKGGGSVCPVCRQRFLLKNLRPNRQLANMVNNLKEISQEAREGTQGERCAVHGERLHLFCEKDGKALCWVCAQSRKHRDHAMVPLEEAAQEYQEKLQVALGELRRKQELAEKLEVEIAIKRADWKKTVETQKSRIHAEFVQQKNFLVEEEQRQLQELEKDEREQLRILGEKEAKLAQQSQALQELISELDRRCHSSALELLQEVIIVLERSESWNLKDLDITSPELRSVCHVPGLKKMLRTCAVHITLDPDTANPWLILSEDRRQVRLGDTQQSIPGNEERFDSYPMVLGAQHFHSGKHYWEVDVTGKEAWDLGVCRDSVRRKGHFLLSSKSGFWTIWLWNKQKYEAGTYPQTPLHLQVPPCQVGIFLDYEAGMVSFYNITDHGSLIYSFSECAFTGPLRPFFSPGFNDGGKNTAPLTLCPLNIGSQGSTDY
UniProt O60826: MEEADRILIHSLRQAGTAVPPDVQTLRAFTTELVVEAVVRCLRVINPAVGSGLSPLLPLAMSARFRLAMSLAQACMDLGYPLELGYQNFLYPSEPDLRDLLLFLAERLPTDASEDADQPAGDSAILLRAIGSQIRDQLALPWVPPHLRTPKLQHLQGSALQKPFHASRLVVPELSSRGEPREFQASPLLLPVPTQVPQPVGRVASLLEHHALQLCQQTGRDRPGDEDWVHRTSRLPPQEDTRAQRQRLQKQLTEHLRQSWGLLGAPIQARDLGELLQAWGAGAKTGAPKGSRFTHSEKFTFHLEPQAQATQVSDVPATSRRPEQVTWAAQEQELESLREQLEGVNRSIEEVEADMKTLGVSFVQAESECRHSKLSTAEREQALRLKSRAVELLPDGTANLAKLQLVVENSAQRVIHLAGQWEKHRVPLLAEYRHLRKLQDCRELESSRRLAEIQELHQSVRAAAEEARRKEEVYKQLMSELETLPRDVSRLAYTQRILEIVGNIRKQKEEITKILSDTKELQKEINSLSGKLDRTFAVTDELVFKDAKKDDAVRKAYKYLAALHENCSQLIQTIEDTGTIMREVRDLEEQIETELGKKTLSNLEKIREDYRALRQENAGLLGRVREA

Common to all, as to assay: co-IP
Experiment [1] concerns the target T1, N-terminal Flag-tagged TRIM72 (Flag-TRIM72), full length (UniProt Q6ZMU5).
T1 sequence: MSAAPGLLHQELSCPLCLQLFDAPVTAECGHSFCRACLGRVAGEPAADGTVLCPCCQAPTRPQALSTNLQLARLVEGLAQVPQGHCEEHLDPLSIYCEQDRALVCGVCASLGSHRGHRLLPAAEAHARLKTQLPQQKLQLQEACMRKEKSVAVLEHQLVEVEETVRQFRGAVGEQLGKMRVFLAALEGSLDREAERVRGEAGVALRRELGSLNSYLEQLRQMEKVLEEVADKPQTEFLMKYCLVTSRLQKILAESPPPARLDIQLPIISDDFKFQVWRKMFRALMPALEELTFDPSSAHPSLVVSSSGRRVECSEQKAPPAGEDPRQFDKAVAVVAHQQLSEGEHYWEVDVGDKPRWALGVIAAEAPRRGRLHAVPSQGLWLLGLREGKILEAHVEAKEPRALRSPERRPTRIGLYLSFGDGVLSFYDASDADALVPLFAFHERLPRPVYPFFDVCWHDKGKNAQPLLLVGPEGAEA

The target in the next experiment is CCDC93-Flag (UniProt Q567U6).
Another experiment deals with T2, FLAG-tagged TRIM11 (UniProt Q96F44).
T2 sequence: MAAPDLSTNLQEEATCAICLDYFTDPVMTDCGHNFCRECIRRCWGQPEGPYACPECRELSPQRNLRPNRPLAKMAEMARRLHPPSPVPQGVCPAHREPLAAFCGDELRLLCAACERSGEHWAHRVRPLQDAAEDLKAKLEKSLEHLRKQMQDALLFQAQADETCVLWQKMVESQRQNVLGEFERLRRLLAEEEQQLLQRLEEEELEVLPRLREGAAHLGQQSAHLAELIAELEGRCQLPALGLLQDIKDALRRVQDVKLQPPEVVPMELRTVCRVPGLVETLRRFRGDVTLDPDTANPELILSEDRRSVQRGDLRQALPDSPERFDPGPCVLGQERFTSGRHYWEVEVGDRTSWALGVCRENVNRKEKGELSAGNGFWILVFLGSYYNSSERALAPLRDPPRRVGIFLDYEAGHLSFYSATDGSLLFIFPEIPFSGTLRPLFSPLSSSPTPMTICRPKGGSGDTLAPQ

A further experiment concerns the target FLAG-tagged TRIM21 (UniProt P19474).
Experiment [2] has as its target T1, N-terminal Flag-tagged TRIM72 (Flag-TRIM72), full length. This is another data set of the same source.
Experiment [3] deals with C-terminal Myc-tagged CCDC22 (CCDC22-Myc) (UniProt O60826).

Where two headings read alike, the source gives them in different places. These are yes or no findings as the source states them, for the method shown. Binding seen in cells or lysates may run through a third protein. Some results given as binding are weak or reduced against the parent protein; the word gives no strength. For some of these results: Sequences can lack the tags named with a protein.

Regarding “C-terminal Myc-tagged CCDC22 (CCDC22-Myc) (from UniProt O60826 1-627)”, the binding result (in experiment [1]; in the experiment with CCDC93-Flag; with FLAG-tagged TRIM11; with FLAG-tagged TRIM21; in experiment [2]) was “binds” throughout.
Regarding “CCDC22 D540K/E541R-Myc (from UniProt O60826 1-627)”, the binding entry in experiment [2] is reported as “binds”.
In the case of CCDC93-Flag (from UniProt Q567U6 1-631), the binding entry in experiment [3] is on record as “binds”.
